Patent US20230272392A1, “METHODS OF TFEB ACTIVATION AND LYSOSOMAL BIOGENESIS AND COMPOSITIONS THEREFOR” (Casma Therapeutics, Inc., priority 2020, published 2023)
No constants are given. Whether binding was seen depends on the method and setting. Binding seen in cells or lysates may run through a third protein. Some binding calls cover weakened binding; strength is not graded here. For part of these data: Sequences can lack the tags named with a protein.

Amino acid sequences for entries named in this document (tags omitted).
UniProt O95166: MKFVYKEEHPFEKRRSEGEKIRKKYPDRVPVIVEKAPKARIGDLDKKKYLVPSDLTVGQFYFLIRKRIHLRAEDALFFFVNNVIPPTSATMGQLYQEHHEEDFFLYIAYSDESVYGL

B1: Human FNIP1 Y583A/V586A, N-terminal 3X HA tag (protein, UniProt Q8TF40 1-1166, looked up, not shown: small tags and cut ends)
chain: MAPTLFQKLFSKRTGLGAPGRDARDPDCGFSWPLPEFDPSQIRLIVYQDCERRGRNVLFDSSVKRRNEDISVSKLGSDAQVKVFGKCCQLKPGGDSSSSLDSSVTSSSDIKDQCLKYQGSRCSSDANMLGEMMFGSVAMSYKGSTLKIHQIRSPPQLMLSKVFTARTGSSICGSLNTLQDSLEFINQDNNTLKADNNTVINGLLGNIGLSQFCSPRRAFSEQGPLRLIRSASFFAVHSNPMDMPGRELNEDRDSGIARSASLSSLLITPFPSPNSSLTRSCASSYQRRWRRSQTTSLENGVFPRWSIEESFNLSDESCGPNPGIVRKKKIAIGVIFSLSKDEDENNKFNEFFFSHFPLFESHMNKLKSAIEQAMKMSRRSADASQRSLAYNRIVDALNEFRTTICNLYTMPRIGEPVWLTMMSGTPEKNHLCYRFMKEFTFLMENASKNQFLPALITAVLTNHLAWVPTVMPNGQPPIKIFLEKHSSQSVDMLAKTHPYNPLWAQLGDLYGAIGSPVRLARTVVVGKRQDMVQRLLYFLTYFIRCSELQETHLLENGEDEAIVMPGTVITTTLEKGEIEESEAVLATMHRNKSSLLFKESEEIRTPNCNCKYCSHPLLGQNVENISQQEREDIQNSSKELLGISDECQMISPSDCQEENAVDVKQYRDKLRTCFDAKLETVVCTGSVPVDKCALSESGLESTEETWQSEKLLDSDSHTGKAMRSTGMVVEKKPPDKIVPASFSCEAAQTKVTFLIGDSMSPDSDTELRSQAVVDQITRHHTKPLKEERGAIDQHQETKQTTKDQSGESDTQNMVSEEPCELPCWNHSDPESMSLFDEYFNDDSIETRTIDDVPFKTSTDSKDHCCMLEFSKILCTKNNKQNNEFCKCIETVPQDSCKTCFPQQDQRDTLSILVPHGDKESSDKKIAVGTEWDIPRNESSDSALGDSESEDTGHDMTRQVSSYYGGEQEDWAEEDEIPFPGSKLIEVSAVQPNIANFGRSLLGGYCSSYVPDFVLQGIGSDERFRQCLMSDLSHAVQHPVLDEPIAEAVCIIADMDKWTVQVASSQRRVTDNKLGKEVLVSSLVSNLLHSTLQLYKHNLSPNFCVMHLEDRLQELYFKSKMLSEYLRGQMRVHVKELGVVLGIESSDLPLLAAVASTHSPYVAQILL
B2: Human FNIP1 WT, N-terminal 3X HA tag (protein, UniProt Q8TF40 1-1166, looked up, not shown: small tags and cut ends)
chain: MAPTLFQKLFSKRTGLGAPGRDARDPDCGFSWPLPEFDPSQIRLIVYQDCERRGRNVLFDSSVKRRNEDISVSKLGSDAQVKVFGKCCQLKPGGDSSSSLDSSVTSSSDIKDQCLKYQGSRCSSDANMLGEMMFGSVAMSYKGSTLKIHQIRSPPQLMLSKVFTARTGSSICGSLNTLQDSLEFINQDNNTLKADNNTVINGLLGNIGLSQFCSPRRAFSEQGPLRLIRSASFFAVHSNPMDMPGRELNEDRDSGIARSASLSSLLITPFPSPNSSLTRSCASSYQRRWRRSQTTSLENGVFPRWSIEESFNLSDESCGPNPGIVRKKKIAIGVIFSLSKDEDENNKFNEFFFSHFPLFESHMNKLKSAIEQAMKMSRRSADASQRSLAYNRIVDALNEFRTTICNLYTMPRIGEPVWLTMMSGTPEKNHLCYRFMKEFTFLMENASKNQFLPALITAVLTNHLAWVPTVMPNGQPPIKIFLEKHSSQSVDMLAKTHPYNPLWAQLGDLYGAIGSPVRLARTVVVGKRQDMVQRLLYFLTYFIRCSELQETHLLENGEDEAIVMPGTVITTTLEKGEIEESEYVLVTMHRNKSSLLFKESEEIRTPNCNCKYCSHPLLGQNVENISQQEREDIQNSSKELLGISDECQMISPSDCQEENAVDVKQYRDKLRTCFDAKLETVVCTGSVPVDKCALSESGLESTEETWQSEKLLDSDSHTGKAMRSTGMVVEKKPPDKIVPASFSCEAAQTKVTFLIGDSMSPDSDTELRSQAVVDQITRHHTKPLKEERGAIDQHQETKQTTKDQSGESDTQNMVSEEPCELPCWNHSDPESMSLFDEYFNDDSIETRTIDDVPFKTSTDSKDHCCMLEFSKILCTKNNKQNNEFCKCIETVPQDSCKTCFPQQDQRDTLSILVPHGDKESSDKKIAVGTEWDIPRNESSDSALGDSESEDTGHDMTRQVSSYYGGEQEDWAEEDEIPFPGSKLIEVSAVQPNIANFGRSLLGGYCSSYVPDFVLQGIGSDERFRQCLMSDLSHAVQHPVLDEPIAEAVCIIADMDKWTVQVASSQRRVTDNKLGKEVLVSSLVSNLLHSTLQLYKHNLSPNFCVMHLEDRLQELYFKSKMLSEYLRGQMRVHVKELGVVLGIESSDLPLLAAVASTHSPYVAQILL

Key:
[1] = biological target: FLCN-FNIP1 complex (wild-type FNIP1) (human) (UniProt Q8NFG4+Q8TF40); test: co-immunoprecipitation
[2] = biological target: T1, Human FLCN WT, C-terminal FLAG tag (human) (UniProt Q8NFG4); test: co-immunoprecipitation
T1 sequence (looked up): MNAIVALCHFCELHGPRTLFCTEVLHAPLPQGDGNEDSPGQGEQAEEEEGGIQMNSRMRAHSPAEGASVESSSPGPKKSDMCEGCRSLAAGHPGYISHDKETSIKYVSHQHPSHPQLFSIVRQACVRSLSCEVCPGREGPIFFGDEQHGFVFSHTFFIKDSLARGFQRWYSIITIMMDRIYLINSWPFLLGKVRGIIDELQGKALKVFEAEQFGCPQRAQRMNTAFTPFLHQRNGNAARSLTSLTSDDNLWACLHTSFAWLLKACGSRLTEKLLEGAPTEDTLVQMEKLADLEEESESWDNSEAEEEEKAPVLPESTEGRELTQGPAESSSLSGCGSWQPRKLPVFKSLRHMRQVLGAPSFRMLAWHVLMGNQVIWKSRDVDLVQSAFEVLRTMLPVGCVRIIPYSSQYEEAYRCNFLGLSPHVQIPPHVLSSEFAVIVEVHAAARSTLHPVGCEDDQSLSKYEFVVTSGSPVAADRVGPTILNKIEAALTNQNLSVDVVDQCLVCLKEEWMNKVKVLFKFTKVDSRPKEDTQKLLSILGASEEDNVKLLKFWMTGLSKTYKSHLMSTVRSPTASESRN

| Molecule | binding [1] | binding [2] |
| --- | --- | --- |
| Human GABARAP WT, N-terminal myc tag (from UniProt O95166 1-117) | binds | – |
| B1 | – | binds |
| B2 | – | binds |
